Drawing on PubChem BioAssay AID651706 (NMMLSC, 2012), this text covers double positive cells for 2 compounds.

The list shows a part of the results. Shown are side measurements of this screen, not its main read-out; they come without a call. Most of these compounds were active or inconclusive in the main read-out, so they are no random draw.

This assay can be described thus: differentiation of ER-HoxA9 arrested myeloid cells – cell-based, GFP/Mac1 flow cytometry, cherry pick 01, confirmation (AID 651706).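 Note: share of live cells carrying both lysozyme GFP and MAC1 staining after four days; test concentration not given here.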 Particulars: ER-HoxA9 myeloid progenitors, measured here: percent double positive cells, stronger effect = higher value.
The compound `Cc1cc(NC(=O)COC(=O)c2c(C)nn(Cc3ccccc3)c2Cl)no1` gave a double positive cells of 12.5%. The figure for `COC(=O)C1=C(c2cc3ccccc3s2)C[C@@H]2CC[C@H]1N2C(=O)NC1CCCCC1` is 5.8%.
